From ChEMBL document CHEMBL3988442, “University of Dundee, Small-Polar-MMV Screening Library” (2021).

Amino acid sequences for entries named in this document (tags omitted).
UniProt P9WFT3, whole entry: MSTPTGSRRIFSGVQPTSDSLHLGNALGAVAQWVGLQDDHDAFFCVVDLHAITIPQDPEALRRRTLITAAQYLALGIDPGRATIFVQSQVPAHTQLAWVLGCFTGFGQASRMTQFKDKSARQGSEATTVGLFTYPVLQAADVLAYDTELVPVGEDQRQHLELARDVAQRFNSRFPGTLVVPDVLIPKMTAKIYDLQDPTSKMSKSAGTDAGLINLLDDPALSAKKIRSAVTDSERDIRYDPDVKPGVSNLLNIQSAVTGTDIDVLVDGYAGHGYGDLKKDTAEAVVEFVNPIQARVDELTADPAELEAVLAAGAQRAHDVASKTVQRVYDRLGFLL

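Tryptophan-tRNA ligase, Mycobacterium tuberculosis (UniProt P9WFT3). Enzyme assay of tryptophanyl-tRNA synthetase; the read-out is not stated. Concentration: 10 µM. Direction is not recorded; retested compounds ran higher, which suggests that high means inhibition. About 65,000 compounds were tested under these conditions; 0.098% (about 64) showed 50% or more at least once.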

Results are given as percent effect. The record does not define 0% and 100%; most values in the screen are far below 50% and negative numbers occur (in some assays of this library far below -100). The compounds are a random part of those screened.

structure | Percent Effect
NC(=O)NC(CC(=O)NCCc1cccc(F)c1)c1cccs1 (stereo not shown) | 1.41
O=C(Cc1ccc2c(c1)OCO2)N[C@@H]1CCNC[C@H]1O | 3.112
OC1CCN(Cc2cc3c(cc2Br)OCCO3)CC1 | -4.739
CCS(=O)(=O)c1ccc2c(c1)N1CCS(=O)(=O)N=C1O2 | 2.249
CCN1CCC12CCN(C(=O)c1ccsc1)C2 (stereo not shown) | 4.554
Cc1cc(N2CCC(c3n[nH]c4nccnc34)CC2)ncn1 | 8.058
CCN(CCOC)C(=O)c1cc(COc2ccc3c(c2)CCCC3)on1 | 6.166
CCNC(=O)C1CCN(c2nc(-c3ccco3)nc3c2CCNCC3)C1 (stereo not shown) | -4.907
COCc1noc(C2(c3ccc(F)cc3)CC2)n1 | 2.205
Cc1cnn(CCNCC(O)COc2c(C)ccc(C)c2C)c1 (stereo not shown) | -1.023
CCNC(=O)C1CCN(Cc2ccccc2OCC(F)(F)F)CC1 | -1.329
c1ccc(CN(Cc2cccc3cnccc23)CC2CCCO2)nc1 (stereo not shown) | 0
OCCOCc1n[nH]c2c1CN(Cc1ccccn1)C2 | -9.24
CC(CC(=O)Nc1ncn(CC(=O)N2CCCCCC2)n1)C1CC1 (stereo not shown) | -4.114
COCCN(Cc1ccoc1)S(=O)(=O)c1ccc(OC)c(Cl)c1 | -0.297
CCNS(=O)(=O)c1ccc(C)c(C(=O)N(C)Cc2ccccc2C)c1 | -4.321
CCCc1cc(C(=O)N[C@@H]2CC[C@@H](N3CCOCC3)[C@@H]2O)no1 | -9.986
COc1ccccc1CCNC(=O)C1CCC(Cn2cnnn2)CC1 (stereo not shown) | 2.451
O=C(COCc1ccccc1Cl)N1CCN(c2cnccn2)CC1 | -0.3799
CN(CC(F)(F)F)C(=O)c1ccc(F)c(NS(C)(=O)=O)c1 | -2.993
Cn1cc(C2CC(=O)NC23CCN(Cc2cccc(F)c2)CC3)cn1 (stereo not shown) | -3.989
CCNC(=O)CNC(=O)c1ccn(S(=O)(=O)c2ccc(C)cc2)c1 | 2.534
Cc1nc(C(=O)N2CCC3(CC2)CC(=O)N(CC2CCCO2)C3)cs1 (stereo not shown) | -3.311
Cc1nn(C)c2c(=O)n(C(C)C)c(NCC3CCCO3)nc12 (stereo not shown) | 2.855
Cn1c(C(F)(F)F)nn(CCNC(=O)c2nc3ccccc3s2)c1=O | -2.971
CC1CCCCN1C(=O)c1cn(-c2ccc(C(F)(F)F)cn2)nn1 (stereo not shown) | -4.054
CC(Cn1cncn1)NC(=O)Nc1ccc(F)cc1OCC1CC1 (stereo not shown) | -4.15
CN(Cc1ccccc1)CC(C)(C)NC(=O)c1cnccn1 | 2.602
Cc1cc2c(N)nc(=O)n(CC(=O)Nc3cccc(Cl)c3)c2s1 | 1.866
CCO[C@@H]1C[C@H]2CN(Cc3ccc(C)o3)CCN2C1 | -0.9091
COc1cccc([C@@H]2N[C@H](c3nccs3)Cc3ccsc32)c1OC | -1.583
CCC(C)(NCC(=O)OC)c1nccs1 (stereo not shown) | -0.3749
Cc1ccc(NC2CCN(C(=O)CCc3nccs3)CC2)nn1 | -5.404
CC(C)NC(=O)CN(C)C1CCN(c2cnc3ccccc3n2)CC1 | -14.69
COCCn1ccc(=O)c(OCC(=O)Nc2cccc(C(C)=O)c2)c1C | 0.000009
Cc1cccc(NC2CCN(C(=O)Nc3cc(C)on3)CC2)n1 | 2.911
CC(C)[C@H]1COC(=O)N1Cc1nnc(-c2ccccc2)o1 | -3.389
Cc1sc(NS(=O)(=O)c2ccccc2)nc1C(=O)NC1CC1 | 0.5663
O=S(=O)(c1cccnc1)N1C[C@H]2CCC[C@@]2(COc2ccccn2)C1 | 1.521
CN1CCCC2(CCN(C(=O)Cn3ncc4ccccc4c3=O)C2)C1=O (stereo not shown) | -2.251
Cc1ccc(N2CCCC3(CCN(C(=O)NC4CCCC4)C3)C2)nn1 (stereo not shown) | -9.076
CCc1nsc(N2CCn3c(nnc3C(F)(F)F)C2)n1 | -0.5236
Cc1nnsc1C(=O)NCc1nn(C)c2c1COCC2 | -2.596
OCCN1CCN(CCOCC(F)(F)F)CC1 | 8.228
O=C([C@H]1C[C@H]2OCC[C@H]2N(C(=O)c2ccncc2)C1)N1CCCC1 | -2.278
CN(C)S(=O)(=O)N1CCC2(COCc3cnc(NCC4CC4)nc32)C1 (stereo not shown) | -2.853
OCc1ccc(CN(CCCn2ccnc2)Cc2cccnc2)o1 | -2.177
O=C(Nc1ccccc1)c1ccc(NCc2nccs2)nn1 | -3.128
CCN(CC)S(=O)(=O)N1C[C@@H](O)[C@H](Oc2cccc(F)c2)C1 | 0.2114
CCOc1ncccc1C(=O)NCCN(CC)C1CC1 | -4.971
CCOCCN1C[C@H](C(=O)Nc2cccnc2)[C@@H]2CCO[C@@H]2C1 | -0.5724
O=C1CCCN1c1cccc(CNCc2cc(F)ccc2F)c1 | 2.197
CC(C)NC(=O)CC(C)NCc1cc(Cl)ccc1F (stereo not shown) | -4.004
CC(O)CN1CCN(C(=O)c2cc3ccccc3n2C)CC1 (stereo not shown) | 6.236
Cc1nc(CN2CCCC(C)(CO)C2)no1 (stereo not shown) | 1.175
Cn1ccnc1COc1ccc(CO)cc1 | -1.679
Cc1cc(C(=O)NCCN2CCC(C)CC2)nn1C(C)(C)C | -2.295
CCN1C[C@H]2CCN(C(=O)NC)CC[C@H]2S1(=O)=O | -1.66
COc1ccc(OCC(=O)NC(C)c2ccc(F)cc2)c(C(=O)O)c1 (stereo not shown) | 0.1676
CC(=O)NC1CCCN(C(=O)Nc2nnc(C(C)C)s2)C1 (stereo not shown) | 0.1679
COCCc1noc(CN2CCCc3cccc(OC)c32)n1 | -1.65
Cc1cnc(CN(C)C2CCCN(c3cccnn3)C2)cn1 (stereo not shown) | 2.201
CCOCC1CN(C(=O)COc2ccccc2C)Cc2ncn(C)c21 (stereo not shown) | -3.344

Repeated from the top, 4 entries:

{"structure": "NC(=O)NC(CC(=O)NCCc1cccc(F)c1)c1cccs1", "stereo": "stereo not shown", "Percent Effect": 1.41}
{"structure": "O=C(Cc1ccc2c(c1)OCO2)N[C@@H]1CCNC[C@H]1O", "Percent Effect": 3.112}
{"structure": "OC1CCN(Cc2cc3c(cc2Br)OCCO3)CC1", "Percent Effect": -4.739}
{"structure": "CCS(=O)(=O)c1ccc2c(c1)N1CCS(=O)(=O)N=C1O2", "Percent Effect": 2.249}